In patent US20050043264A1, “Methods of inhibiting neurodegenerative disease” (priority 2003, published 2005):
Results are given in words; binding and its absence hold for the method and conditions named. For part of these data: Binding seen in cells or lysates may run through a third protein. Some entries that bind do so weakly or less than the wild type.

By UniProt entry, the sequences of proteins in these tests, tags left out.
UniProt P48609: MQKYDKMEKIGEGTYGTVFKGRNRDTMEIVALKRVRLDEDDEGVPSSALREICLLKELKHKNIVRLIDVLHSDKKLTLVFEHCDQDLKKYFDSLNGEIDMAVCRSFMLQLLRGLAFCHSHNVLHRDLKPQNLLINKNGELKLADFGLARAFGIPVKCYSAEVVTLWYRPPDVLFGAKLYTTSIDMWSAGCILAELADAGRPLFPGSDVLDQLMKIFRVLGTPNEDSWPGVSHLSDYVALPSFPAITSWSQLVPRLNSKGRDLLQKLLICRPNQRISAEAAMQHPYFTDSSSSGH
UniProt P00522: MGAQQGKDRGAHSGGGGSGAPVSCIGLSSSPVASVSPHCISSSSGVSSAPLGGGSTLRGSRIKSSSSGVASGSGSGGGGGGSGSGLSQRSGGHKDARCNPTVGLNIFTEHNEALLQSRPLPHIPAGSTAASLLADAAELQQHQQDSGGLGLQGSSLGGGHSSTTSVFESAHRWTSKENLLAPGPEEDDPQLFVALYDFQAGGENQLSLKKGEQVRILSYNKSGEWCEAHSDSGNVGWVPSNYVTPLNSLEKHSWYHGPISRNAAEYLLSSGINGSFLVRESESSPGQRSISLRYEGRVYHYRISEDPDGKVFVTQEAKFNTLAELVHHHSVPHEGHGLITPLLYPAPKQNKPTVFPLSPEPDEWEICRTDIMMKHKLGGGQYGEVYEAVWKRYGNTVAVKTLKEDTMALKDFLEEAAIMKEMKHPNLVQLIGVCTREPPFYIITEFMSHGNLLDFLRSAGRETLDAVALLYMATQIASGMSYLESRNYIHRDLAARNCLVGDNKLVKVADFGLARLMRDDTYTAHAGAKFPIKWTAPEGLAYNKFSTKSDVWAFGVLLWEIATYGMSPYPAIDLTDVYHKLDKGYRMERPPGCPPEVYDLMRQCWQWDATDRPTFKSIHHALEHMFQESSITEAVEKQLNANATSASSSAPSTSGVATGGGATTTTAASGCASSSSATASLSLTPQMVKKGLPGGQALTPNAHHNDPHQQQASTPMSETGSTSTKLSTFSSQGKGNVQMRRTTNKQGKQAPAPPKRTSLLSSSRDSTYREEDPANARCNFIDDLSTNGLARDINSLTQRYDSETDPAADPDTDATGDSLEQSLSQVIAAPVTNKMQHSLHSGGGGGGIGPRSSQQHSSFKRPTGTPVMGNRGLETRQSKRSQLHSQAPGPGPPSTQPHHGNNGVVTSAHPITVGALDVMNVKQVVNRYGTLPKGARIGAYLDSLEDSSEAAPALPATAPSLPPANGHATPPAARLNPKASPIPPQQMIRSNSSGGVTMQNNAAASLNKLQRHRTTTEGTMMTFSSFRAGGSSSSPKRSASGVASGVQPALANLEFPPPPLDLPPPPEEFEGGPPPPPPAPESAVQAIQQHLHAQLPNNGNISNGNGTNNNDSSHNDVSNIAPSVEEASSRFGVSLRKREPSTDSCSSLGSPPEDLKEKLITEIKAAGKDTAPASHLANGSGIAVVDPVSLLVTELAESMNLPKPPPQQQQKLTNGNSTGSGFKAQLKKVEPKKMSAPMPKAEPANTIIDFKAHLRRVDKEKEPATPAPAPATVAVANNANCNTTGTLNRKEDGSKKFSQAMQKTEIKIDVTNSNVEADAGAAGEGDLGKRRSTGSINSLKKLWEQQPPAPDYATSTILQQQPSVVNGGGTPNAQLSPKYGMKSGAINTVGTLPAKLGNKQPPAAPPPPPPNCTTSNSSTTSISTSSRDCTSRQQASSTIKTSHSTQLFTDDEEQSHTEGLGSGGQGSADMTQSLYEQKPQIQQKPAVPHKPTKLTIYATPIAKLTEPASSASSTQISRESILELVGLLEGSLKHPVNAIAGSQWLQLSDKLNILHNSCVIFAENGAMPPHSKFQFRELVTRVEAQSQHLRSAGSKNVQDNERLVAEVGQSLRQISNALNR

Legend:
[1] = target: Drosophila Cdk5 (endogenous, BG2-c2 neuronal cells) (Drosophila melanogaster) (UniProt P48609); assay: co-immunoprecipitation (anti-HA) followed by anti-Cdk5 and anti-HA immunoblotting, BG2-c2 cells treated with Aβ42 or STI571
[2] = target: Drosophila Cdk5 (endogenous, BG2-c2 neuronal cells) (Drosophila melanogaster) (UniProt P48609); assay: immunoprecipitation and Western blot with in vitro kinase assay, BG2-c2 cells
[3] = target: Drosophila Cdk5 (endogenous, BG2-c2 neuronal cells) (Drosophila melanogaster) (UniProt P48609); assay: co-immunoprecipitation (anti-HA) and anti-Cdk5 Western blot from BG2-c2 cell lysates; association abolished by STI571

Measured: binding

HA-tagged Abl (Drosophila Abl expressed from pAc5.1 in BG2-c2 cells) (from UniProt P00522 1-1620) (enzyme)
binds: all assays above
